Laboratory results reported in paper PMC7819943, “Rice protein-binding microarrays: a tool to detect cis-acting elements near promoter regions in rice”.
This is one part of the list.

Target: T1, OsSMF1 (Oryza sativa, UniProt Q6ZLB0 1-436)
T1 sequence: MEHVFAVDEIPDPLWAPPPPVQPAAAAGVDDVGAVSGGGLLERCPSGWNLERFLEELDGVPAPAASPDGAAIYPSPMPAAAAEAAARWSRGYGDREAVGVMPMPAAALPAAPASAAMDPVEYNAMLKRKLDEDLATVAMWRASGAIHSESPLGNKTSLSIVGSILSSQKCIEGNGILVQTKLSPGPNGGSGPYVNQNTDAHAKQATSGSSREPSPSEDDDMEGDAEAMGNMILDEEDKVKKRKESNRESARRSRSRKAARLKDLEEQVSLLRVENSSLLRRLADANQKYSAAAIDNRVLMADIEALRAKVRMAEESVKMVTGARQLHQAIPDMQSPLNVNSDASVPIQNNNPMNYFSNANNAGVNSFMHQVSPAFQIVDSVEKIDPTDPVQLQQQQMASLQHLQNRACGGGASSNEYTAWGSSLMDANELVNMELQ
Test: protein-binding microarray (RPBM); PBS, 2% BSA, 51.3 ng/ul salmon testes DNA, 50 uM zinc acetate, 200 nM TF, 25 C, 1 h; high values mean tight binding
Settings: protein: recombinant; tags: N-terminal polyhistidine and DsRed monomer fusion (pET32a); chain copies: 2; label: CyDye5-dUTP incorporated in the synthesized complementary strand; 3' TTTTT single-stranded linker to array surface; dsDNA, one strand shown
Outline: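 Transcription factors were made in E. coli BL21-CodonPlus as N-terminal fusions to a polyhistidine tag and DsRed, then purified on Ni–NTA. After primer extension with Cy5-dUTP and blocking with 2% BSA, a custom Agilent array was exposed for 1 h at 25 °C to 200 nM protein in PBS, 2% BSA, salmon testes DNA and 50 µM zinc acetate. Washed arrays were scanned on an Axon 4000B, and the binding signal is per-feature fluorescence intensity in arbitrary units.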

In order of falling binding signal:
1. TGCAAATTGCGAGACGGATTTATTAAGCCTAGTTAATCCGCGGAGTCACCTAGTGCAG  39400 fluorescence intensity (a.u.)
2. AGATACTCTAAAAGTACGGTGAGGGTAGGATGATGTGAAGCGGAGTCACCTAGTGCAG  32200 fluorescence intensity (a.u.)
3. GTCAGTGGAAGAGAGAAGGTTATAGCAAAGCAGCAGCAACCGGAGTCACCTAGTGCAG  29600 fluorescence intensity (a.u.)
4. TAATTGCAATTAACCCCACGTCAGCGATCCGCCTCTAAACCGGAGTCACCTAGTGCAG  22300 fluorescence intensity (a.u.)
5. TTCCAACCCGCCCCGTGTGCTGACGTGGCAGCCATGTTGGCGGAGTCACCTAGTGCAG  19300 fluorescence intensity (a.u.)
6. AGTAGAGTCGCCAACTACCCTAACCTAGCAATCACCGCATCGGAGTCACCTAGTGCAG  17800 fluorescence intensity (a.u.)
7. CGCGCGGATCTGTCCTCTTTGACCTGGATGACGTGGGATCCGGAGTCACCTAGTGCAG  15400 fluorescence intensity (a.u.)
8. GTCAGGGTTCAATTTCCTGACATGTATGCACACACGTCAGCGGAGTCACCTAGTGCAG  15200 fluorescence intensity (a.u.)
9. CAGCGCCTGTTGCTGATCCCATCCCATTATAACCTTAGTTCGGAGTCACCTAGTGCAG  14700 fluorescence intensity (a.u.)
10. ATTCTTCTAATATATTGACGTGTAATTCTTCTGCGCATTCCGGAGTCACCTAGTGCAG  12600 fluorescence intensity (a.u.)
11. CATCATGTACAAGGCCTTGAGTAGATTGGGCCTCCAGCTACGGAGTCACCTAGTGCAG  12000 fluorescence intensity (a.u.)
12. GGATGTGAAATATGAGCTGGCTGTGAATGTGTCGTTGTGTCGGAGTCACCTAGTGCAG  6880 fluorescence intensity (a.u.)
13. TCGGCAGAGCTTGCCAAGACGACCTACGTCACCACCTTGCCGGAGTCACCTAGTGCAG  6790 fluorescence intensity (a.u.)
14. TCTCCAGTCCTTGTTCGCCACGACACGTCTTACTTGACTGCGGAGTCACCTAGTGCAG  6720 fluorescence intensity (a.u.)
15. TACGGCCCCACTTTTATTTTCAATTCATTTGATGACTAGGCGGAGTCACCTAGTGCAG  6350 fluorescence intensity (a.u.)
16. AACTATGAGCTTATGAGCTTGGATACATACTAGTTCAGATCGGAGTCACCTAGTGCAG  5800 fluorescence intensity (a.u.)
17. GCAAGCGGTCTCGCGTCATCATGCGACACTGTAACATCAACGGAGTCACCTAGTGCAG  5610 fluorescence intensity (a.u.)
18. CTGAAAAGTTGTGTGTGTATGACATGTTGATGTGATGGAACGGAGTCACCTAGTGCAG  5180 fluorescence intensity (a.u.)
19. CACCACTATCTCAACCGGATCGAGTCAGAGGCCAGAAGGGCGGAGTCACCTAGTGCAG  5070 fluorescence intensity (a.u.)
20. GCAGCCGACCACGCCACCTTGCTTTGCGCTGCTACCTCCACGGAGTCACCTAGTGCAG  5040 fluorescence intensity (a.u.)
21. TTGACATTACCTGACATCAGTGTGTCACCATCTAATTTTACGGAGTCACCTAGTGCAG  4980 fluorescence intensity (a.u.)
22. AAGAAAACAACACTAAGTATATACGTGTATCTCAACCCACCGGAGTCACCTAGTGCAG  4940 fluorescence intensity (a.u.)
23. TAATTCCACCCATGTACGGATTTGGATCTAATTATGTTAACGGAGTCACCTAGTGCAG  4910 fluorescence intensity (a.u.)
24. TCCCCAATGCTCAATGACACCATCATCCCCGCCGGGATTTCGGAGTCACCTAGTGCAG  4850 fluorescence intensity (a.u.)
25. ATCCATGCTCTGGCCTCCTCTTTGATTTTCGTCAGCAAGCCGGAGTCACCTAGTGCAG  4850 fluorescence intensity (a.u.)
26. AGTGGGGCCTACCTGTCAGTGACTCCACCCCTATATTCTCCGGAGTCACCTAGTGCAG  4740 fluorescence intensity (a.u.)
27. CTCCACCGGAGTTGACGTACGAGGATGATGATGATGATGACGGAGTCACCTAGTGCAG  4720 fluorescence intensity (a.u.)
28. GACACTCCAGCCCAGCAGGCTTACCTGTCAGGAGCCCACTCGGAGTCACCTAGTGCAG  4520 fluorescence intensity (a.u.)
29. ATTAGAATCGAGAATTGTGTGTTGGCATGTATCCACATGTCGGAGTCACCTAGTGCAG  4450 fluorescence intensity (a.u.)
30. TCATCATCATCATTGGACAAATCCAACGTGCCTCATCACTCGGAGTCACCTAGTGCAG  4440 fluorescence intensity (a.u.)
31. AAATCTCAACCCGTACACGTACGCGTCTGCGAAATTAATCCGGAGTCACCTAGTGCAG  4440 fluorescence intensity (a.u.)
32. CCTCCACCTGTGCCCTCCCGCGGTCAGCAACCGTATCGCTCGGAGTCACCTAGTGCAG  3950 fluorescence intensity (a.u.)
33. CATTTAAGTGACATGTAAACAACGAGGGAACTTAACATCCCGGAGTCACCTAGTGCAG  3930 fluorescence intensity (a.u.)
34. TCCTCCTGGCGCACCAGCTCCTGTCGGCGGCGGCGTATCACGGAGTCACCTAGTGCAG  3860 fluorescence intensity (a.u.)
35. CGCATACGATATCTGTGATAACCGCACGGATACTAAACCTCGGAGTCACCTAGTGCAG  3820 fluorescence intensity (a.u.)
36. CCTCCTCCTCGCCGTGGGCGGGGCGGATGGCGGCGGCGTTCGGAGTCACCTAGTGCAG  3770 fluorescence intensity (a.u.)
37. TTTCACGAAACCCAGTGATCCTGTCAGGTATCCTATGTACCGGAGTCACCTAGTGCAG  3760 fluorescence intensity (a.u.)
38. TTCTGCACCTTCATTTATTTGTAGGTTTACGACAGCCTCTCGGAGTCACCTAGTGCAG  3720 fluorescence intensity (a.u.)
39. CTCTAAGGCTATGTTTGGCACACCCTTCCCATCCCCTTTCCGGAGTCACCTAGTGCAG  3690 fluorescence intensity (a.u.)
40. CTCACATACATCGAACACACACACACAACGTGTACAGCACCGGAGTCACCTAGTGCAG  3690 fluorescence intensity (a.u.)
41. CTCCTGGAGGGCGAAGACGTGGAGGCGGTGGTGGTATTCGCGGAGTCACCTAGTGCAG  3600 fluorescence intensity (a.u.)
42. CGAAATTTGACGCCATGGAAGCTAGCGTGCATGTAGATCACGGAGTCACCTAGTGCAG  3520 fluorescence intensity (a.u.)
43. CGTACGCATAATAACGCGTAATATGATCAAGTCATGTGTGCGGAGTCACCTAGTGCAG  3510 fluorescence intensity (a.u.)
44. GTGAAATTAAATGGGAAATGGTTATGATTGGTTGAGACGACGGAGTCACCTAGTGCAG  3470 fluorescence intensity (a.u.)
45. GCCACTGATTGTGGAGGGTGTGGATTTGGATTTACGCATGCGGAGTCACCTAGTGCAG  3460 fluorescence intensity (a.u.)
46. TGTTGCTGTTGTCCGGTGTACATCCACAACTTCTTTGCCTCGGAGTCACCTAGTGCAG  3420 fluorescence intensity (a.u.)
47. GATAGCTGCAAAAGCTCAATTATACACGTAGGAGTAGTTCCGGAGTCACCTAGTGCAG  3410 fluorescence intensity (a.u.)
48. TTGTTTAAAATATTAAGTCAATAATGTCTTGTGCTTTCAACGGAGTCACCTAGTGCAG  3340 fluorescence intensity (a.u.)
49. CAGCAGCAGCAGCAAGGCACCTACTCCTAATCGTCTCATGCGGAGTCACCTAGTGCAG  3300 fluorescence intensity (a.u.)
50. TCTTTCCATTTGCACATAGGCCAACTCAGTTCAAGTGGCCCGGAGTCACCTAGTGCAG  3250 fluorescence intensity (a.u.)
51. AAAATTTGTTGACAAATAGTCCCTACGTGGTCTGTGTTACCGGAGTCACCTAGTGCAG  3220 fluorescence intensity (a.u.)
52. GAATTTCCCCTCCTTTTCCATGTCACCCGGTCCGCCCATTCGGAGTCACCTAGTGCAG  3180 fluorescence intensity (a.u.)
53. TGTTGTTATGGAAACATACGTGCGTGCATGATTAGTTATTCGGAGTCACCTAGTGCAG  3180 fluorescence intensity (a.u.)
54. TTGCGGAATCATCAGTGCTATATGTTGTGCAGAATTGGATCGGAGTCACCTAGTGCAG  3150 fluorescence intensity (a.u.)
